# Assay results from paper PMC6359284, “Identification, Characterization, and Optimization of Integrin αvβ6-Targeting Peptides from a One-Bead One-Compound (OBOC) Library: Towards the Development of Positron Emission Tomography (PET) Imaging Agents” (Molecules, 2019).
# The chains behind the UniProt entries cited, without tags or fusion partners. Where a name states a change or a piece, a line headed by the entry shows the natural chain unless it says otherwise.
# UniProt P06756: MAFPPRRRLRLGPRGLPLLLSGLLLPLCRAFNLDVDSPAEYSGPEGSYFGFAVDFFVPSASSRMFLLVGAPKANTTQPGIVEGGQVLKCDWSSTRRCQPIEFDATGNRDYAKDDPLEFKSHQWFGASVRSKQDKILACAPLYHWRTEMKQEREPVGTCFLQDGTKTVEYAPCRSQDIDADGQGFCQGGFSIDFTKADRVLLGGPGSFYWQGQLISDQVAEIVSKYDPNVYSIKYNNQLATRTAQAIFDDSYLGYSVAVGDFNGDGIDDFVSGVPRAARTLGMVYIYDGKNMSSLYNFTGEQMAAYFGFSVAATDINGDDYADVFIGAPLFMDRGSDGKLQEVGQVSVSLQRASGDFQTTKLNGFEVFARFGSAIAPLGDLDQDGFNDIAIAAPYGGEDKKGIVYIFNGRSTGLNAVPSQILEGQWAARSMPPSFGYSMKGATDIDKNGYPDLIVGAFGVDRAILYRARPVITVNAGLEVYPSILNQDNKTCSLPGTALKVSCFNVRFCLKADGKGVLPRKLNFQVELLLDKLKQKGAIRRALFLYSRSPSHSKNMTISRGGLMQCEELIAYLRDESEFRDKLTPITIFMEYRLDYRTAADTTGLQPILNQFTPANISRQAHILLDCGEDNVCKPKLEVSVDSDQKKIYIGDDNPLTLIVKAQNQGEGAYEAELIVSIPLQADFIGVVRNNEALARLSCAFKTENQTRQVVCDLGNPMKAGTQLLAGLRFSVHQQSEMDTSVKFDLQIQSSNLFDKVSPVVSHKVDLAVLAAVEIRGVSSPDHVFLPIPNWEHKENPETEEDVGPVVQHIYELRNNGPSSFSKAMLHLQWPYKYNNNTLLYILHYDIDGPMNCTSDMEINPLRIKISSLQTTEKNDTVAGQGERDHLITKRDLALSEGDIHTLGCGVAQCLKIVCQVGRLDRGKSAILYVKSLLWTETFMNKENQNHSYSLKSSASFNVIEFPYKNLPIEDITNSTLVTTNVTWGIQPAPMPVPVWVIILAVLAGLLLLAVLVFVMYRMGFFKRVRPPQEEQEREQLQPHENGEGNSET
# Results are given in words; binding and its absence hold for the method and conditions named. Some results given as binding are weak or reduced against the parent protein; the word gives no strength.
# Target: integrin αvβ6 on DX3puroβ6 cells (UniProt P06756)
# Assay: on-bead cell binding assay; only the binder purified
row,Binder,binding
1,"RGDLMKLAK [peptide 2, …(FB)]",binds
2,"RGDLADLRK [peptide 3, …(FB)]",binds
3,"RGDLRELAK [peptide 5, …(FB)]",binds
